For this test, the target named is endogenous Synaptotagmin 1 of primary hippocampal neurons (proximity labelling and PLA) (rat (endogenous in primary hippocampal neurons)) (UniProt P21707). The test is described as follows: proximity labelling; proteins biotinylated near Syt1 through NbLumSyt1-APEX2 bound on live primary neurons; streptavidin beads, LC-MS/MS; hits enriched against input and against control IPs.

By UniProt entry, the sequences of proteins in these tests, tags left out.
UniProt P21707: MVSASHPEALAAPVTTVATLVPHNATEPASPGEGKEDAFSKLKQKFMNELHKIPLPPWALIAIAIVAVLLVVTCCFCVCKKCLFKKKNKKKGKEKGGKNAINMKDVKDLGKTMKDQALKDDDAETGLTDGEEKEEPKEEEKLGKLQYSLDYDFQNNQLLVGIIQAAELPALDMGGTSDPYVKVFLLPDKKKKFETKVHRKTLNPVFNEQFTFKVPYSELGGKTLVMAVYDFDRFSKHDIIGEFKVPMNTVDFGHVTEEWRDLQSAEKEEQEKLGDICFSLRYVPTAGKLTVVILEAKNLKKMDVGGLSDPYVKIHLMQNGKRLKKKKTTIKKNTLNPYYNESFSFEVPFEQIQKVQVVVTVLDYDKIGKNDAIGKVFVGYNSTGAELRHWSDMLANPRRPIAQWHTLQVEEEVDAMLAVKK

No constants are given. Whether binding was seen depends on the method and setting. In cells and extracts the contact can be indirect. A yes stands for co-enrichment or nearness to the bait. Other partners may have been found.

B1: ciliary neurotrophic factor receptor (Cntfr) (receptor, UniProt Q08406 23-342)
chain: QKHSPQEAPHVQYERLGTDVTLPCGTASWDAAVTWRVNGTDLAPDLLNGSQLILRSLELGHSGLYACFHRDSWHLRHQVLLHVGLPPREPVLSCRSNTYPKGFYCSWHLSAPTYIPNTFNVTVLHGSKMMVCEKDPALKNRCHIRYMHLFSTIKYKVSISVSNALGHNTTAITFDEFTIVKPDPPENVVARPVPSNPRRLEVTWQTPSTWPDPESFPLKFFLRYRPLILDQWQHVELSNGTAHTITDAYAGKEYIIQVAAKDNEIGTWSDWSVAAHATPWTEEPRHLTTEAQAPETTTSTTSSLAPPPTTKICDPGELSS
For the molecule B1, the binding result is “binds”.

These data come from paper PMC13185310, “A versatile nanobody platform for live and super-resolution imaging of synaptic vesicle dynamics and plasticity in rodent and human neurons” (Journal of Nanobiotechnology, 2026).
